In article doi:10.1101/551317:
These are yes or no findings as the source states them, for the method shown. In cells and extracts the contact can be indirect. Some entries that bind do so weakly or less than the wild type. For some of these results: Tags and fused reporters may be left off the sequences shown.

Protein sequences, listed by entry. Tags and fused reporters are not part of them.
UniProt F4I735: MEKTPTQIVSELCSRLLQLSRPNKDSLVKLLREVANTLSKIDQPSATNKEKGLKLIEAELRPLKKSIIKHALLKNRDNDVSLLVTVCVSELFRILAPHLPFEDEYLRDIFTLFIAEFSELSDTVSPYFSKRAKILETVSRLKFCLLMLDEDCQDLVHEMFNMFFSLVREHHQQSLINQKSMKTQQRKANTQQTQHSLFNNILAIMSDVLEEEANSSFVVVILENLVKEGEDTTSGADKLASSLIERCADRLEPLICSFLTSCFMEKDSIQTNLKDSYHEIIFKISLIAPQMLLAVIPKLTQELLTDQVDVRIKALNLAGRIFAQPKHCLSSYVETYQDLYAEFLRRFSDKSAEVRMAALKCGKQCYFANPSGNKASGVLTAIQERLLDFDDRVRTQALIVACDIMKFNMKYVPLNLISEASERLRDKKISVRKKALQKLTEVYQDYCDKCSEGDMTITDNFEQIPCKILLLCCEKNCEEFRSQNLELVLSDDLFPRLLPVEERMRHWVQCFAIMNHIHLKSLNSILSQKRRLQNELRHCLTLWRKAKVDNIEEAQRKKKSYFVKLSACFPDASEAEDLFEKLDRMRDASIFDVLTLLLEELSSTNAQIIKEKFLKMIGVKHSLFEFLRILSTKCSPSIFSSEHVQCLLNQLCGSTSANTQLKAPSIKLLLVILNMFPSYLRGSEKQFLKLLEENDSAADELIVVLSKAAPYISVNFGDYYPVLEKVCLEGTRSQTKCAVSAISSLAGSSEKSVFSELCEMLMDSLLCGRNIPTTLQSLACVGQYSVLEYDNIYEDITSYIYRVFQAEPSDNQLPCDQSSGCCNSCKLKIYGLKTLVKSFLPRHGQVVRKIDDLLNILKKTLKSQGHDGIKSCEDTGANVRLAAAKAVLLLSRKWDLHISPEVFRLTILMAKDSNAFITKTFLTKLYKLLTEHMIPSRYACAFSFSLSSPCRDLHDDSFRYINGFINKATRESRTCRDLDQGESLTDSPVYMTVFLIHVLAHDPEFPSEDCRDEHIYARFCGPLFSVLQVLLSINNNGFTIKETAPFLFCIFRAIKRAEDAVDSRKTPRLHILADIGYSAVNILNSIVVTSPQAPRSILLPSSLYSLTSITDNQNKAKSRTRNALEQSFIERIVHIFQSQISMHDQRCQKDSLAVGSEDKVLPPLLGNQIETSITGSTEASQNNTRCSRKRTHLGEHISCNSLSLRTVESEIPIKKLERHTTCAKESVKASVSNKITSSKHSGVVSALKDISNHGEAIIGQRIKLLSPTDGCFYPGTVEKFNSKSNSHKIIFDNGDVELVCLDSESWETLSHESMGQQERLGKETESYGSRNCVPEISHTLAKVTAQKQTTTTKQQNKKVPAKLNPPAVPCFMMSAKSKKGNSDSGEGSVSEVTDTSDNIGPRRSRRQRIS
UniProt Q9FGN8: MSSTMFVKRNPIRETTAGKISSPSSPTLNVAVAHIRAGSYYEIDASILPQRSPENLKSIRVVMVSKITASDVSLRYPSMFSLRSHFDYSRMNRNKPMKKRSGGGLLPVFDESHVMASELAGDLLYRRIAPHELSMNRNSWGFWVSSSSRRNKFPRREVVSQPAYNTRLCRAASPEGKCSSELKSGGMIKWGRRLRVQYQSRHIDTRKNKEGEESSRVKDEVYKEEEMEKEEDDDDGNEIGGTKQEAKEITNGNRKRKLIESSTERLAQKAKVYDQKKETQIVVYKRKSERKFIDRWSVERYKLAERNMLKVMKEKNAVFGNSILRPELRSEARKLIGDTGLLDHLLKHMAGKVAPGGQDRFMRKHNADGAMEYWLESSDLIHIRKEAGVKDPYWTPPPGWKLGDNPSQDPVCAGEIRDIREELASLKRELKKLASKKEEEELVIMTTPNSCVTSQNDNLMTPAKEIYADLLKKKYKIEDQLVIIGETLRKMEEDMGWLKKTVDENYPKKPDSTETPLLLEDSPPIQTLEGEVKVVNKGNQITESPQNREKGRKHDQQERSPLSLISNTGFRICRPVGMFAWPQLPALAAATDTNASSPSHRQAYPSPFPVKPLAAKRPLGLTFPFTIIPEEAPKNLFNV

Assays:
Assay in all cases: split reporter
[1] = molecular target: PDS5B, BiFC fusion (Arabidopsis thaliana) (UniProt F4I735)
[2] = molecular target: T1, PDS5C, BiFC fusion (Arabidopsis thaliana) (UniProt Q8GUP3)
T1 sequence: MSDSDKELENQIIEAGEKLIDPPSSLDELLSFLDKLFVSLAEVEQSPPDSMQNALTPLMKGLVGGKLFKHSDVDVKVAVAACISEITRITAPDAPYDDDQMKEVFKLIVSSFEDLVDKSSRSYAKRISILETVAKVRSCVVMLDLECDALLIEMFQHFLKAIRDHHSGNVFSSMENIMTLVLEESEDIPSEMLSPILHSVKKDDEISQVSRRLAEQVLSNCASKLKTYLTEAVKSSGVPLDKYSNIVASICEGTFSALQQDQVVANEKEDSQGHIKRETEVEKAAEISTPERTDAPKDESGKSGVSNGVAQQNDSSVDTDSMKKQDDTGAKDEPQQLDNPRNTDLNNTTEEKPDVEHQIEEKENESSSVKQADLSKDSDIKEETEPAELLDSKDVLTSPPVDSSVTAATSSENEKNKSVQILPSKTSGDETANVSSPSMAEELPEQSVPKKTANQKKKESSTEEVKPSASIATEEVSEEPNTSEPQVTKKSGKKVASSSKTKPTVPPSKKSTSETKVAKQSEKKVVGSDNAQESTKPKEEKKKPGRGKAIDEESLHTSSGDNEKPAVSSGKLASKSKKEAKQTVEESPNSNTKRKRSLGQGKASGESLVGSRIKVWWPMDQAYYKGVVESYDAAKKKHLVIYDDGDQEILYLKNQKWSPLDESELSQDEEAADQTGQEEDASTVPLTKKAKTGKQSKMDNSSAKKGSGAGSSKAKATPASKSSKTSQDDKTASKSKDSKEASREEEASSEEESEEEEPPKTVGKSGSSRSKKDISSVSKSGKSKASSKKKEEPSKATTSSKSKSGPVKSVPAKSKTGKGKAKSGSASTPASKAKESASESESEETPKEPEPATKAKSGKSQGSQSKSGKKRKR

[3] = molecular target: T2, PDS5D, BiFC fusion (Arabidopsis thaliana) (UniProt A8MRD9)
T2 sequence: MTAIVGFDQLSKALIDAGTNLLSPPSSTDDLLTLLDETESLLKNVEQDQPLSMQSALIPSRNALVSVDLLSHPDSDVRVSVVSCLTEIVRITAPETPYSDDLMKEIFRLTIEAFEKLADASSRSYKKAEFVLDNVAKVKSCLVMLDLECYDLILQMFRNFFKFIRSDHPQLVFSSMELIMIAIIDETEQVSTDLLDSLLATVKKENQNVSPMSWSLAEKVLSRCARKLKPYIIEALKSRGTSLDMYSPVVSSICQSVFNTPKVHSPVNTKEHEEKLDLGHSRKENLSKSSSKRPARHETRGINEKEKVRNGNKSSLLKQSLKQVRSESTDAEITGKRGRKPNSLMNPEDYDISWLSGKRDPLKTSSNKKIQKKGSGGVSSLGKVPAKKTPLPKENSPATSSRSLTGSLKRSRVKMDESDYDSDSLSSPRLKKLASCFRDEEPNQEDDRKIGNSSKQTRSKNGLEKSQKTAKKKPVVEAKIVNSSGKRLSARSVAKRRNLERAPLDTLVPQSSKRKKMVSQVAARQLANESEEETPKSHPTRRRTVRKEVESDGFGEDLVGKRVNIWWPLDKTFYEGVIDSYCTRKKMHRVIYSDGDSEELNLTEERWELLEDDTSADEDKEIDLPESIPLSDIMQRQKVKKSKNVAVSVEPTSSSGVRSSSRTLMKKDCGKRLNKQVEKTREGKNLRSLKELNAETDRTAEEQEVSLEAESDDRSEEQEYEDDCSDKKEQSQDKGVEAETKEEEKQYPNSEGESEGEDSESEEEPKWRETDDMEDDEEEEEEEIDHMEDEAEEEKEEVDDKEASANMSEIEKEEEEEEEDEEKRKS

[4] = molecular target: T3, PDS5E, BiFC fusion (Arabidopsis thaliana) (UniProt Q9S9P0)
T3 sequence: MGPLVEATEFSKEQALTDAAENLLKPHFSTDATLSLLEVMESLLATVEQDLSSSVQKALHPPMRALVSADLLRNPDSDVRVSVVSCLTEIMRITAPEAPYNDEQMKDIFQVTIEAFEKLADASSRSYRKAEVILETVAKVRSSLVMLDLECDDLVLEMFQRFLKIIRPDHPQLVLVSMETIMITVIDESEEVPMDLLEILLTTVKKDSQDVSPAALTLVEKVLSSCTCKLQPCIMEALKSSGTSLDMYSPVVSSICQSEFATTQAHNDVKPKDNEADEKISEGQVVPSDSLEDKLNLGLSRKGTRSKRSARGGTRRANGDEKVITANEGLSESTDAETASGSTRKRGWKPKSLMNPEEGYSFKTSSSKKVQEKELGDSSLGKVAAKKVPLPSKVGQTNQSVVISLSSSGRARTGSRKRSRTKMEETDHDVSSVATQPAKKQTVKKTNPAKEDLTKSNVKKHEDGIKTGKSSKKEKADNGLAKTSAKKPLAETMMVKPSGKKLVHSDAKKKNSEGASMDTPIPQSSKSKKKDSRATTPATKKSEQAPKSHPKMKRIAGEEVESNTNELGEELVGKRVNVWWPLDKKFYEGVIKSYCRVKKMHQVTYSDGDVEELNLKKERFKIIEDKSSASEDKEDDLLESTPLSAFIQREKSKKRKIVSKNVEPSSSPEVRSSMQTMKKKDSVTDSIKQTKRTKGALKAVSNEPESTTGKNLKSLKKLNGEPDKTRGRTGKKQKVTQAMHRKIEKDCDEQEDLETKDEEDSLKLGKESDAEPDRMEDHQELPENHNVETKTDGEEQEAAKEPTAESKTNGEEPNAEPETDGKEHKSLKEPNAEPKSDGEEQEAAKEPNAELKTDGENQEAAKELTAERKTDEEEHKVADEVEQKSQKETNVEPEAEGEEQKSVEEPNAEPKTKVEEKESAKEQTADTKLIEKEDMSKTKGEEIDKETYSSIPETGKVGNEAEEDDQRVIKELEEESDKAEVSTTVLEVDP

SWI1, BiFC fusion (from UniProt Q9FGN8 1-639)
binding [1]: binds weakly
binding [2]: binds
binding [3]: binds weakly
binding [4]: binds
